Test: Acute toxicity test, intravenous, mice
Conditions: mouse, in vivo, male ddY mice, observed two weeks
Method: Male ddY mice (5-7 weeks old) were divided into groups each consisting of 4 mice. The test compounds were dissolved in physiological saline containing 50% polyethylene glycol 400, which was then administered intravenously to the mice, and they were put under observation over two weeks. The analysis was done following the Van der Worden method.

Compound: COC(=O)C1=C(C)NC(C)=C(C(=O)OC)C1c1ccccc1[N+](=O)[O-] [Nifedipine, reference compound]
- LD50 at 336 h: 5.3 mg/kg
